{"source": "paper PMC2660419", "binders": {"B1": {"name": "FLAG-tagged rat FE65 (protein, UniProt P46933 1-711)", "chain": "MSVPSSLSQSAINANSHGGPALSFPFPLHAAHNQLLNAKLQATAVVPKDLRSAMGEGSVPEPGPANAKWLKEGQNQLRRAATAHRDQNRNVTLTLAEEASQEAETAPLGPKGLMHLYSELELSAHNAANRGLHGSALIINTQGLGPDEGEEKAAGEVEEEDEDEEEEDEEEEDLSSPQGLPEPLENVEVPSGPQVLTDGPREHSKSASLLFGMRNSAASDEDSSWATLSQGSPSYGSPEDTDSFWNPNAFETDSDLPAGWMRVQDTSGTYYWHIPTGTTQWEPPGRASPSQGNSPQEESQLTWTGFAHQEGFEEGEFWKDEPSEEAPMELGLKDPEEGTLPFSAQSLSPEPVPQEEENLPQRNANPGIKCFAVRSLGWVEMTEEELAPGRSSVAVNNCIRQLSYHKNNLHDPMSGGWGEGKDLLLQLEDETLKLVEPQNQTLLHAQPIVSIRVWGVGRDSGRERDFAYVARDKLTQMLKCHVFRCEAPAKNIATSLHEICSKIMSERRNARCLVNGLSLDHSKLVDVPFQVEFPAPKNELVQKFQVYYLGNVPVAKPVGVDVINGALESVLSSSSREQWTPSHVSVAPATLTILHQQTEAVLGECRVRFLSFLAVGRDVHTFAFIMAAGPASFCCHMFWCEPNAASLSEAVQAACMLRYQKCLDARSQTSTSCLPAPPAESVARRVGWTVRRGVQSLWGSLKPKRLGSQTP"}}, "target": "T1, myc-tagged full-length human Teashirt3 (human) (UniProt Q63HK5)", "T1 sequence": "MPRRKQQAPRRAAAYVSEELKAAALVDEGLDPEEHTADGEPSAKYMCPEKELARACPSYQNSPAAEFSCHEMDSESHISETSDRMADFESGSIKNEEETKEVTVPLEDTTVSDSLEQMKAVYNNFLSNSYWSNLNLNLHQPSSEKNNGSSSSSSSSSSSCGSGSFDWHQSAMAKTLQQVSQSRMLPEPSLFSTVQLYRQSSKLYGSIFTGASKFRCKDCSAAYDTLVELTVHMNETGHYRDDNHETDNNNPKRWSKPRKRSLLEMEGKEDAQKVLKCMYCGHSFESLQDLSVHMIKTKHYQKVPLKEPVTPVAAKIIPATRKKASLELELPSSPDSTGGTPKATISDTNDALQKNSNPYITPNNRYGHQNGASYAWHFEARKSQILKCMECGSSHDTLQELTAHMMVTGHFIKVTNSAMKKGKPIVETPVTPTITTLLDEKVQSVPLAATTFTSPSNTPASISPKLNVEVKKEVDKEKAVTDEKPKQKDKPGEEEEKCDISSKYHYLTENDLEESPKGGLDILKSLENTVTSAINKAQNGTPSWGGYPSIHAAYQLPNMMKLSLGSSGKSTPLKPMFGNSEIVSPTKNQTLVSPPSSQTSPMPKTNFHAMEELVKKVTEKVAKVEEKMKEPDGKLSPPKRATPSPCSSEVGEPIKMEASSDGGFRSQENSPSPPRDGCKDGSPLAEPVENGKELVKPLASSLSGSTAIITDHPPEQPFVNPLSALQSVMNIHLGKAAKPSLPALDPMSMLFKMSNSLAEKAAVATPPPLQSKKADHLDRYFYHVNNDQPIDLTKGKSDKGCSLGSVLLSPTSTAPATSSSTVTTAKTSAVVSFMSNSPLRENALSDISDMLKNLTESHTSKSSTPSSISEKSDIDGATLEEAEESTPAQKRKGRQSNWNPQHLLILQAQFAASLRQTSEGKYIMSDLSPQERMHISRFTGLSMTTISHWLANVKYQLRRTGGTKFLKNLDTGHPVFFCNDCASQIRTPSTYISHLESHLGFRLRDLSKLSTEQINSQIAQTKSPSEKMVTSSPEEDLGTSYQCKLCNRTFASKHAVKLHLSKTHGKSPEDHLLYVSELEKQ", "test": "co-IP; H4 cells transiently transfected with FLAG-FE65 and myc-Teashirt3 (human); IP with anti-myc or control mouse IgG, blot with anti-FE65; lysis in PBS/0.5% Triton X-100", "note": "Results are given in words; binding and its absence hold for the method and conditions named. Binding seen in cells or lysates may run through a third protein. Some entries that bind do so weakly or less than the wild type. Sequences can lack the tags named with a protein."}
{"binder": "B1", "values": [{"measurement": "binding", "result": "binds"}]}
